# Laboratory results published in the supplement of paper PMC8728848.
# Some of the results follow.
# Key:
# Experiment in all cases: glycan array binding signal (z-score within array); higher = stronger binding
# Conditions in all cases: glycan notation: IUPAC condensed, linker removed
# [1] = molecular target: Gal(a1-3)Gal
# Method in brief: (§1)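 From the Consortium for Functional Glycomics database, 3228 arrays were curated, keeping only those whose protein sequence was available. Binding is given as a within-array Z-score averaged across arrays sharing a protein sequence and across linkers. Negative Z-scores can be read as non-binding.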
# [2] = molecular target: Gal(a1-3)Gal(b1-3)GlcNAc
# Method in brief: as §1
# [3] = molecular target: Gal(a1-3)Gal(b1-3)GlcNAc(b1-2)Man
# Method in brief: as §1
# [4] = molecular target: Gal(a1-3)Gal(b1-3)GlcNAc(b1-2)Man(a1-3)[Gal(a1-3)Gal(b1-3)GlcNAc(b1-2)Man(a1-6)]Man(b1-4)GlcNAc(b1-4)GlcNAc
# Method in brief: as §1
# [5] = molecular target: Gal(a1-3)Gal(b1-3)GlcNAc(b1-3)GalNAc
# Method in brief: as §1
# [6] = molecular target: Gal(a1-3)Gal(b1-3)GlcNAc(b1-6)GalNAc
# Method in brief: as §1
# [7] = molecular target: Gal(a1-3)Gal(b1-3)[Fuc(a1-4)]GlcNAc(b1-2)Man(a1-3)[Gal(a1-3)Gal(b1-3)[Fuc(a1-4)]GlcNAc(b1-2)Man(a1-6)]Man(b1-4)GlcNAc(b1-4)GlcNAc
# Method in brief: as §1
# [8] = molecular target: Gal(a1-3)Gal(b1-4)Glc
# Method in brief: as §1
# [9] = molecular target: Gal(a1-3)Gal(b1-4)GlcNAc
# Method in brief: as §1
# [10] = molecular target: Gal(a1-3)Gal(b1-4)GlcNAc(b1-2)Man
# Method in brief: as §1
# [11] = molecular target: Gal(a1-3)Gal(b1-4)GlcNAc(b1-2)Man(a1-3)[Gal(a1-3)Gal(b1-4)GlcNAc(b1-2)Man(a1-6)]Man(b1-4)GlcNAc(b1-4)GlcNAc
# Method in brief: as §1
# [12] = molecular target: Gal(a1-3)Gal(b1-4)GlcNAc(b1-3)GalNAc
# Method in brief: as §1
# [13] = molecular target: Gal(a1-3)Gal(b1-4)GlcNAc(b1-6)GalNAc
# Method in brief: as §1
# [14] = molecular target: Gal(a1-3)Gal(b1-4)[Fuc(a1-3)]GlcNAc
# Method in brief: as §1
# [15] = molecular target: Gal(a1-3)Gal(b1-4)[Fuc(a1-3)]GlcNAc(b1-2)Man(a1-3)[Gal(a1-3)Gal(b1-4)[Fuc(a1-3)]GlcNAc(b1-2)Man(a1-6)]Man(b1-4)GlcNAc(b1-4)GlcNAc
# Method in brief: as §1
# [16] = molecular target: Gal(a1-3)GalNAc
# Method in brief: as §1
# [17] = molecular target: Gal(a1-3)[Gal(a1-4)]Gal(b1-4)GlcNAc
# Method in brief: as §1
# [18] = molecular target: Gal(a1-4)Gal(b1-3)GlcNAc(b1-2)Man(a1-3)[Gal(a1-4)Gal(b1-3)GlcNAc(b1-2)Man(a1-6)]Man(b1-4)GlcNAc(b1-4)GlcNAc
# Method in brief: as §1
# [19] = molecular target: Gal(a1-4)Gal(b1-4)Glc
# Method in brief: as §1
# [20] = molecular target: Gal(a1-4)Gal(b1-4)GlcNAc
# Method in brief: as §1
# [21] = molecular target: Gal(a1-4)Gal(b1-4)GlcNAc(b1-2)Man(a1-3)[Gal(a1-4)Gal(b1-4)GlcNAc(b1-2)Man(a1-6)]Man(b1-4)GlcNAc(b1-4)GlcNAc
# Method in brief: as §1
# [22] = molecular target: Gal(a1-4)Gal(b1-4)GlcNAc(b1-3)Gal(b1-4)Glc
# Method in brief: as §1
# [23] = molecular target: Gal(a1-4)GlcNAc
# Method in brief: as §1
# [24] = molecular target: Gal(a1-6)Glc
# Method in brief: as §1
# [25] = molecular target: Gal(b1-2)Gal
# Method in brief: as §1
# [26] = molecular target: Gal(b1-3)Gal
# Method in brief: as §1
# [27] = molecular target: Gal(b1-3)Gal(b1-4)GlcNAc
# Method in brief: as §1
# [28] = molecular target: Gal(b1-3)GalNAc
# Method in brief: as §1
# [29] = molecular target: Gal(b1-3)GalNAc(a1-3)[Fuc(a1-2)]Gal(b1-4)Glc
# Method in brief: as §1
# [30] = molecular target: Gal(b1-3)GalNAc(a1-3)[Fuc(a1-2)]Gal(b1-4)GlcNAc
# Method in brief: as §1
# [31] = molecular target: Gal(b1-3)GalNAc(b1-3)Gal
# Method in brief: as §1
# [32] = molecular target: Gal(b1-3)GalNAc(b1-3)Gal(a1-4)Gal(b1-4)Glc
# Method in brief: as §1
# [33] = molecular target: Gal(b1-3)GalNAc(b1-4)Gal(b1-4)Glc
# Method in brief: as §1
# [34] = molecular target: Gal(b1-3)GalNAc(b1-4)[Neu5Ac(a2-3)]Gal(b1-4)Glc
# Method in brief: as §1
# [35] = molecular target: Gal(b1-3)GlcNAc
# Method in brief: as §1
# [36] = molecular target: Gal(b1-3)GlcNAc(a1-3)Gal(b1-4)GlcNAc
# Method in brief: as §1
# [37] = molecular target: Gal(b1-3)GlcNAc(a1-6)Gal(b1-4)GlcNAc
# Method in brief: as §1
# [38] = molecular target: Gal(b1-3)GlcNAc(b1-2)Man
# Method in brief: as §1
binder,measurement,setting,value
"ERGIC1-EDTA (Homo sapiens), Q969X5 (protein) MKFLVNVALVFMVVYISYIYAAAHMHHHHHHDYDIPTTENLYFQGSEVVNELYVDDPDKDSGGKIDVSLNISLPNLHCELVGLDIQDEMGRHEVGHIDNSMKIPLNNGAGCRFEGQFSINKVPGNFHVSTHSATAQPQNPDMTHVIHKLSFGDTLQVQNIHGAFNALGGADRLTSNPLASHDYILKIVPTVYEDKSGKQRYSYQYTVANKEYVAYSHTGRIIPAIWFRYDLSPITVKYTE",glycan array binding signal (z-score),[1],0.304
same,glycan array binding signal (z-score),[2],0.254
same,glycan array binding signal (z-score),[3],0.154
same,glycan array binding signal (z-score),[4],0.468
same,glycan array binding signal (z-score),[5],0.82
same,glycan array binding signal (z-score),[6],0.056
same,glycan array binding signal (z-score),[7],1.66
same,glycan array binding signal (z-score),[8],-0.165
same,glycan array binding signal (z-score),[9],-0.505
same,glycan array binding signal (z-score),[10],-1.12
same,glycan array binding signal (z-score),[11],0.437
same,glycan array binding signal (z-score),[12],-0.034
same,glycan array binding signal (z-score),[13],0.183
same,glycan array binding signal (z-score),[14],-0.92
same,glycan array binding signal (z-score),[15],1.74
same,glycan array binding signal (z-score),[16],-0.361
same,glycan array binding signal (z-score),[17],-0.325
same,glycan array binding signal (z-score),[18],0.579
same,glycan array binding signal (z-score),[19],-0.549
same,glycan array binding signal (z-score),[20],-0.322
same,glycan array binding signal (z-score),[21],0.145
same,glycan array binding signal (z-score),[22],0.927
same,glycan array binding signal (z-score),[23],-0.828
same,glycan array binding signal (z-score),[24],0.061
same,glycan array binding signal (z-score),[25],-0.135
same,glycan array binding signal (z-score),[26],0.934
same,glycan array binding signal (z-score),[27],-0.609
same,glycan array binding signal (z-score),[28],-0.192
same,glycan array binding signal (z-score),[29],0.278
same,glycan array binding signal (z-score),[30],-0.819
same,glycan array binding signal (z-score),[31],0.15
same,glycan array binding signal (z-score),[32],0.748
same,glycan array binding signal (z-score),[33],-0.657
same,glycan array binding signal (z-score),[34],0.859
same,glycan array binding signal (z-score),[35],-0.584
same,glycan array binding signal (z-score),[36],0.087
same,glycan array binding signal (z-score),[37],-0.267
same,glycan array binding signal (z-score),[38],0.451

# In another format: results already given
binder | measurement | setting | value
ERGIC1-EDTA (Homo sapiens), Q969X5 (protein) MKFLVNVALVFMVVYISYIYAAAHMHHHHHHDYDIPTTENLYFQGSEVVNELYVDDPDKDSGGKIDVSLNISLPNLHCELVGLDIQDEMGRHEVGHIDNSMKIPLNNGAGCRFEGQFSINKVPGNFHVSTHSATAQPQNPDMTHVIHKLSFGDTLQVQNIHGAFNALGGADRLTSNPLASHDYILKIVPTVYEDKSGKQRYSYQYTVANKEYVAYSHTGRIIPAIWFRYDLSPITVKYTE | glycan array binding signal (z-score) | [13] | 0.183
same | glycan array binding signal (z-score) | [14] | -0.92
